Results deposited as PubChem BioAssay AID1159601 (NIAID, 2016).
Here is a random part of 756 reagents tested. 143 of them (19%) were called active. 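Calls include both lowered and raised reporter signal; each row is a single siRNA, not a gene summary; Pam3CSK4 dose not stated.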 Unmarked entries are inactive. The numbers tell different reagents against one gene apart. The record does not give: the amount of reagent.

- Screen: 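Knock-down of 126 canonical TLR pathway genes, testing the TNF response to a TLR2 ligand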 (primary screen)
- Cells: human THP-1 reporter cells differentiated with PMA into macrophage-like cells
- Knock-down reagent: single siRNA against human genes
- Duration: ligand added 4 hours before read-out; cells assayed 48 to 72 hours after siRNA transfection
- Treatment: Pam3CSK4 (TLR2 ligand) for 4 hours; dose not given
- Detection: 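Firefly over renilla luciferase ratio from a TNF promoter reporter after 4 h Pam3CSK4, plate scaled by median and MAD, robust z-score versus negative controls, replicate mean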
- Scale: TNF reporter z-score: higher = stronger TNF promoter reporter activity
- Hit rule: 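Grade increases with absolute z-score, cut points 1, 1.5, 2 and 2.5, both signs; rows called active have z near or beyond ±1.5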
- Calls: active = clear change (up or down); inactive = little change

Against MAP2K6 (GeneID 5608) #1, the entry reads TNF reporter z-score, replicate mean -0.321.
MAP2K6 (GeneID 5608) #2 scored TNF reporter z-score, replicate mean 0.191.
Knock-down of MAP2K6 (GeneID 5608) #3 resulted in: TNF reporter z-score, replicate mean -0.137.
With knock-down of MAP2K6 (GeneID 5608) #4, the record shows TNF reporter z-score, replicate mean 0.622.
MAP2K6 (GeneID 5608) #5 gave TNF reporter z-score, replicate mean 0.237.
MAP2K6 (GeneID 5608) #6 scored TNF reporter z-score, replicate mean 0.897.
With knock-down of REL (GeneID 5966) #1, the record shows TNF reporter z-score, replicate mean -0.835.
REL (GeneID 5966) #2 scored TNF reporter z-score, replicate mean -1.09.
For REL (GeneID 5966) #3, the values are TNF reporter z-score, replicate mean 0.0462.
Knock-down of REL (GeneID 5966) #4 resulted in: TNF reporter z-score, replicate mean -1.54 (active).
With knock-down of REL (GeneID 5966) #5, the screen gave TNF reporter z-score, replicate mean -0.463.
REL (GeneID 5966) #6 gave TNF reporter z-score, replicate mean 0.172.
Silencing of TNFAIP3 (GeneID 7128) #1 resulted in: TNF reporter z-score, replicate mean -0.701.
Depletion of TNFAIP3 (GeneID 7128) #2 gave: TNF reporter z-score, replicate mean 0.76.
With knock-down of TNFAIP3 (GeneID 7128) #3, the screen gave TNF reporter z-score, replicate mean -0.548.
Against TNFAIP3 (GeneID 7128) #4 the deposit lists TNF reporter z-score, replicate mean -0.808.
With knock-down of TNFAIP3 (GeneID 7128) #5 the results were TNF reporter z-score, replicate mean -0.156.
With knock-down of TNFAIP3 (GeneID 7128) #6, the record shows TNF reporter z-score, replicate mean -1.64 (active).
Knock-down of MAP3K1 (GeneID 4214) #1 resulted in: TNF reporter z-score, replicate mean -0.417.
After knock-down of MAP3K1 (GeneID 4214) #2, the record shows TNF reporter z-score, replicate mean -0.593.
MAP3K1 (GeneID 4214) #3 scored TNF reporter z-score, replicate mean -0.693.
After knock-down of MAP3K1 (GeneID 4214) #4, the record shows TNF reporter z-score, replicate mean -2.92 (active).
MAP3K1 (GeneID 4214) #5 scored TNF reporter z-score, replicate mean -0.601.
With knock-down of MAP3K1 (GeneID 4214) #6, the screen gave TNF reporter z-score, replicate mean -0.936.
With knock-down of TLR5 (GeneID 7100) #1 the results were TNF reporter z-score, replicate mean 0.309.
TLR5 (GeneID 7100) #2 gave TNF reporter z-score, replicate mean 1.67 (active).
Knock-down of TLR5 (GeneID 7100) #3 resulted in: TNF reporter z-score, replicate mean -1.21.
Silencing of TLR5 (GeneID 7100) #4 gave: TNF reporter z-score, replicate mean -0.712.
TLR5 (GeneID 7100) #5 gave TNF reporter z-score, replicate mean 0.374.
After knock-down of TLR5 (GeneID 7100) #6, the screen gave TNF reporter z-score, replicate mean -1.53 (active).
Depletion of IRAK4 (GeneID 51135) #1 came out at: TNF reporter z-score, replicate mean -0.844.
After knock-down of IRAK4 (GeneID 51135) #2, the record shows TNF reporter z-score, replicate mean 0.507.
After knock-down of IRAK4 (GeneID 51135) #3, the record shows TNF reporter z-score, replicate mean 0.466.
IRAK4 (GeneID 51135) #4 showed TNF reporter z-score, replicate mean -0.0201.
IRAK4 (GeneID 51135) #5 scored TNF reporter z-score, replicate mean 0.316.
For IRAK4 (GeneID 51135) #6 the deposit lists TNF reporter z-score, replicate mean -0.527.
Silencing of PELI1 (GeneID 57162) #1 resulted in: TNF reporter z-score, replicate mean -0.536.
For PELI1 (GeneID 57162) #2 the deposit lists TNF reporter z-score, replicate mean -0.0702.
Against PELI1 (GeneID 57162) #3 the deposit lists TNF reporter z-score, replicate mean 0.704.
Against PELI1 (GeneID 57162) #4, the values are TNF reporter z-score, replicate mean -1.86 (active).
PELI1 (GeneID 57162) #5 scored TNF reporter z-score, replicate mean 0.0905.
With knock-down of PELI1 (GeneID 57162) #6, the record shows TNF reporter z-score, replicate mean 0.547.
NFKB1 (GeneID 4790) #1 gave TNF reporter z-score, replicate mean -1.16.
After knock-down of NFKB1 (GeneID 4790) #2 the results were TNF reporter z-score, replicate mean -0.338.
Depletion of NFKB1 (GeneID 4790) #3 resulted in: TNF reporter z-score, replicate mean -0.924.
For NFKB1 (GeneID 4790) #4 the deposit lists TNF reporter z-score, replicate mean -0.806.
After knock-down of NFKB1 (GeneID 4790) #5, the screen gave TNF reporter z-score, replicate mean 1.54 (active).
Depletion of NFKB1 (GeneID 4790) #6 came out at: TNF reporter z-score, replicate mean 0.811.

Reformatted: entries from further up
TLR5 (GeneID 7100) #3
- TNF reporter z-score, replicate mean: -1.21

TLR5 (GeneID 7100) #4
- TNF reporter z-score, replicate mean: -0.712

TLR5 (GeneID 7100) #5
- TNF reporter z-score, replicate mean: 0.374

TLR5 (GeneID 7100) #6
- TNF reporter z-score, replicate mean: -1.53 (active)
